# Experimental data published in PubChem BioAssay AID248 (DTP/NCI, 2004).
# The list does not hold the whole screen: it is rich in T/C values a quarter to a half above the control, in often repeated tests (any T/C) and in doses without a T/C. Other doses and runs of a compound stand elsewhere. T/C: endpoint of the treated group in % of that of the vehicle group. Some entries give survivors of the animals treated and no T/C: the source holds a T/C of zero for them, seemingly a mark for toxic or unscored doses. Some doses without a T/C left all or most animals alive at the check, yet need not have been tolerated: survival well below the control is almost never listed, so the zero probably covers shortened survival too. Survivors were counted at the toxicity check, usually on the fifth day, unless a day is given; later deaths do not show. Schedules are NCI's codes, read here as Q, the interval in days (D) or hours (H), X, the number of doses. Some doses were run more than once; the results are listed from low to high. Some schedules carry Z or #; the key to these is not given. Where survival is the endpoint, this PubChem deposit counts one and a half times the control or more as active, and values a quarter to a half above the control carry no call in these data; other NCI protocols may use other cut-offs. Some T/C values carry the count of animals alive at the toxicity check (mostly the fifth day); without a count, all were alive then. Additions like (4×) stand for listed records that agree.
# System: L1210 leukemia ip in BDF1 mice, survival T/C
# Assay: NCI In Vivo Anticancer Drug Screen. Data for tumor model L1210 Leukemia (intraperitoneal) in B6D2F1 (BDF1) mice
# Settings: higher T/C = longer survival
# [1] = T/C endpoint: mean survival time, dose: 200.0 mg/kg/injection, schedule: Q01DX005 (ip), vehicle: saline
smiles,measurement,setting,value
Nc1nc2n[nH]nc2c(=O)[nH]1,T/C,"T/C endpoint: mean survival time, dose: 100.0 mg/kg/injection, schedule: Q01DX Z (ip), vehicle: other","116, 125, 131, 136 % of control"
same,survivor count,"T/C endpoint: mean survival time, dose: 100.0 mg/kg/injection, schedule: Q01DX Z (oral), vehicle: other",5 of 6
same,survivor count,"T/C endpoint: mean survival time, dose: 100.0 mg/kg/injection, schedule: Q01DX Z (oral), vehicle: water",6 of 6
same,T/C,"T/C endpoint: mean survival time, dose: 117.0 mg/kg/injection, schedule: Q01DX001 (ip), vehicle: carboxymethylcellulose (CMC)",136 % of control
same,T/C,"T/C endpoint: mean survival time, dose: 125.0 mg/kg/injection, schedule: Q01DX001 (ip), vehicle: carboxymethylcellulose (CMC), evaluated on day 40",148 % of control
same,T/C,"T/C endpoint: mean survival time, dose: 125.0 mg/kg/injection, schedule: Q01DX001 (ip), vehicle: carboxymethylcellulose (CMC), evaluated on day 60",135 % of control
same,T/C,"T/C endpoint: mean survival time, dose: 125.0 mg/kg/injection, schedule: Q06DX003 (ip), vehicle: carboxymethylcellulose (CMC)",137 % of control
same,T/C,"T/C endpoint: mean survival time, dose: 125.0 mg/kg/injection, schedule: Q08DX003 (ip), vehicle: carboxymethylcellulose (CMC)",144 % of control
same,T/C,"T/C endpoint: mean survival time, dose: 125.0 mg/kg/injection, schedule: Q10DX003 (ip), vehicle: carboxymethylcellulose (CMC)",127 % of control
same,T/C,"T/C endpoint: mean survival time, dose: 128.0 mg/kg/injection, schedule: Q## X024 (ip), vehicle: other",143 % of control
same,T/C,"T/C endpoint: mean survival time, dose: 150.0 mg/kg/injection, schedule: Q01DX005 (ip), vehicle: other",140 % of control
same,T/C,"T/C endpoint: mean survival time, dose: 150.0 mg/kg/injection, schedule: Q01DX009 (ip), vehicle: other",148 % of control
same,T/C,"T/C endpoint: mean survival time, dose: 150.0 mg/kg/injection, schedule: Q01DX Z (ip), vehicle: other",127 % of control
same,T/C,"T/C endpoint: mean survival time, dose: 150.0 mg/kg/injection, schedule: Q03DX Z (ip), vehicle: water",134 % of control
same,T/C,"T/C endpoint: mean survival time, dose: 178.8 mg/kg/injection, schedule: Q01DX Z (ip), vehicle: carboxymethylcellulose (CMC)",145 % of control
same,T/C,"T/C endpoint: mean survival time, dose: 179.0 mg/kg/injection, schedule: Q01DX001 (ip), vehicle: carboxymethylcellulose (CMC)",134 % of control
same,T/C,"T/C endpoint: mean survival time, dose: 200.0 mg/kg/injection, schedule: Q01DX005 (ip), vehicle: saline with Tween-80","93, 110, 118, 120 [5 of 6 alive], 126, 128 [5 of 6 alive], 133, 135, 141, 143, 144, 146 (2×), 152, 155, 156, 161 [5 of 6 alive], 172, 180, 187, 191 % of control"
same,T/C,[1],"94 [6 of 7 alive], 95, 100, 101, 113, 115 [5 of 6 alive], 121, 122, 130, 134, 135, 141 (2×), 142, 143, 145, 146 (2×), 147, 148, 150 (2×), 153 (2×), 154 (2×), 156, 157 (3×), 158 (2×), 159, 160, 163 [5 of 6 alive] (2×), 166, 173, 174 (2×), 179, 194 % of control"
same,survivor count,[1],"5 of 6, 6 of 6, 7 of 7"
same,survivor count,"T/C endpoint: mean survival time, dose: 200.0 mg/kg/injection, schedule: Q01DX009 (ip), vehicle: carboxymethylcellulose (CMC)",8 of 10
same,survivor count,"T/C endpoint: mean survival time, dose: 200.0 mg/kg/injection, schedule: Q01DX009 (ip), vehicle: saline",5 of 6
same,T/C,"T/C endpoint: mean survival time, dose: 200.0 mg/kg/injection, schedule: Q01DX010 (ip), vehicle: alkali diluted with saline","115, 140, 140 [5 of 6 alive], 155 % of control"
same,T/C,"T/C endpoint: mean survival time, dose: 200.0 mg/kg/injection, schedule: Q01DX Z (ip), vehicle: other",134 % of control
same,survivor count,"T/C endpoint: mean survival time, dose: 200.0 mg/kg/injection, schedule: Q01DX Z (oral), vehicle: other",1 of 6
same,survivor count,"T/C endpoint: mean survival time, dose: 200.0 mg/kg/injection, schedule: Q01DX Z (oral), vehicle: water",3 of 6
same,survivor count,"T/C endpoint: mean survival time, dose: 200.0 mg/kg/injection, schedule: Q#A X Z (ip), vehicle: carboxymethylcellulose (CMC)",5 of 5
same,survivor count,"T/C endpoint: mean survival time, dose: 225.0 mg/kg/injection, schedule: Q01DX015 (ip), vehicle: clinical formulation",0 of 6
same,survivor count,"T/C endpoint: mean survival time, dose: 225.0 mg/kg/injection, schedule: Q01DX015 (ip), vehicle: water",3 of 6 and 4 of 6
same,T/C,"T/C endpoint: mean survival time, dose: 248.0 mg/kg/injection, schedule: Q## X024 (ip), vehicle: other",147 % of control
same,T/C,"T/C endpoint: mean survival time, dose: 250.0 mg/kg/injection, schedule: Q01DX001 (ip), vehicle: carboxymethylcellulose (CMC), evaluated on day 40",146 % of control
same,T/C,"T/C endpoint: mean survival time, dose: 250.0 mg/kg/injection, schedule: Q01DX001 (ip), vehicle: carboxymethylcellulose (CMC), evaluated on day 60",144 % of control
same,T/C,"T/C endpoint: mean survival time, dose: 250.0 mg/kg/injection, schedule: Q08DX003 (ip), vehicle: carboxymethylcellulose (CMC)",147 % of control
same,T/C,"T/C endpoint: mean survival time, dose: 250.0 mg/kg/injection, schedule: Q10DX003 (ip), vehicle: carboxymethylcellulose (CMC)",132 % of control
same,T/C,"T/C endpoint: mean survival time, dose: 267.0 mg/kg/injection, schedule: Q01DX001 (ip), vehicle: carboxymethylcellulose (CMC)",137 % of control
same,T/C,"T/C endpoint: mean survival time, dose: 300.0 mg/kg/injection, schedule: Q01DX005 (ip), vehicle: other",136 % of control
same,T/C,"T/C endpoint: mean survival time, dose: 300.0 mg/kg/injection, schedule: Q01DX009 (ip), vehicle: other",137 % of control [9 of 10 alive]
same,survivor count,"T/C endpoint: mean survival time, dose: 300.0 mg/kg/injection, schedule: Q01DX Z (im), vehicle: carboxymethylcellulose (CMC)",6 of 6
same,survivor count,"T/C endpoint: mean survival time, dose: 300.0 mg/kg/injection, schedule: Q01DX Z (ip), vehicle: carboxymethylcellulose (CMC)",6 of 6
same,T/C,"T/C endpoint: mean survival time, dose: 300.0 mg/kg/injection, schedule: Q02DX005 (ip), vehicle: carboxymethylcellulose (CMC)",136 % of control
same,T/C,"T/C endpoint: mean survival time, dose: 400.0 mg/kg/injection, schedule: Q01DX001 (ip), vehicle: steroid suspending solution",129 % of control
same,survivor count,"T/C endpoint: mean survival time, dose: 400.0 mg/kg/injection, schedule: Q01DX009 (ip), vehicle: water",1 of 6 and 2 of 6
same,T/C,"T/C endpoint: mean survival time, dose: 400.0 mg/kg/injection, schedule: Q01DX010 (ip), vehicle: alkali diluted with saline",126 and 127 % of control
same,survivor count,"T/C endpoint: mean survival time, dose: 400.0 mg/kg/injection, schedule: Q01DX Z (im), vehicle: carboxymethylcellulose (CMC)",4 of 5
same,survivor count,"T/C endpoint: mean survival time, dose: 400.0 mg/kg/injection, schedule: Q01DX Z (ip), vehicle: carboxymethylcellulose (CMC)",3 of 6
same,survivor count,"T/C endpoint: mean survival time, dose: 400.0 mg/kg/injection, schedule: Q01DX Z (oral), vehicle: water",1 of 6
same,T/C,"T/C endpoint: mean survival time, dose: 500.0 mg/kg/injection, schedule: Q01DX001 (sc), vehicle: carboxymethylcellulose (CMC)",139 % of control
same,T/C,"T/C endpoint: mean survival time, dose: 500.0 mg/kg/injection, schedule: Q06DX003 (ip), vehicle: carboxymethylcellulose (CMC)",132 % of control
same,T/C,"T/C endpoint: mean survival time, dose: 500.0 mg/kg/injection, schedule: Q08DX003 (ip), vehicle: carboxymethylcellulose (CMC)",148 % of control
same,survivor count,"T/C endpoint: mean survival time, dose: 500.0 mg/kg/injection, schedule: Q## X003 (ip), vehicle: carboxymethylcellulose (CMC)",5 of 10
same,T/C,"T/C endpoint: mean survival time, dose: 500.0 mg/kg/injection, schedule: Q## X024 (ip), vehicle: other",131 % of control
same,survivor count,"T/C endpoint: mean survival time, dose: 600.0 mg/kg/injection, schedule: Q02DX005 (ip), vehicle: carboxymethylcellulose (CMC)",7 of 10
same,survivor count,"T/C endpoint: mean survival time, dose: 700.0 mg/kg/injection, schedule: Q01DX001 (ip), vehicle: water",0 of 6
same,survivor count,"T/C endpoint: mean survival time, dose: 700.0 mg/kg/injection, schedule: Q07DX Z (ip), vehicle: water",1 of 6
same,T/C,"T/C endpoint: mean survival time, dose: 750.0 mg/kg/injection, schedule: Q01DX001 (ip), vehicle: carboxymethylcellulose (CMC)",132 % of control
same,T/C,"T/C endpoint: mean survival time, dose: 750.0 mg/kg/injection, schedule: Q06DX003 (ip), vehicle: carboxymethylcellulose (CMC)",139 % of control
same,T/C,"T/C endpoint: mean survival time, dose: 750.0 mg/kg/injection, schedule: Q08DX003 (ip), vehicle: carboxymethylcellulose (CMC)",136 % of control
same,survivor count,"T/C endpoint: mean survival time, dose: 1000.0 mg/kg/injection, schedule: Q01DX001 (ip), vehicle: carboxymethylcellulose (CMC)",6 of 10
same,T/C,"T/C endpoint: mean survival time, dose: 1000.0 mg/kg/injection, schedule: Q01DX001 (sc), vehicle: carboxymethylcellulose (CMC)",137 % of control
same,survivor count,"T/C endpoint: mean survival time, dose: 1000.0 mg/kg/injection, schedule: Q## X003 (ip), vehicle: carboxymethylcellulose (CMC)",0 of 10 and 3 of 10
same,T/C,"T/C endpoint: median survival time, dose: 50.0 mg/kg/injection, schedule: Q01DX009 (ip), vehicle: other",144 % of control
same,T/C,"T/C endpoint: median survival time, dose: 100.0 mg/kg/injection, schedule: Q01DX009 (ip), vehicle: other",144 % of control
